Library screen at single concentrations

Chains of the proteins cited; added tags and fusions are not shown.
UniProt I6X8D2, whole entry: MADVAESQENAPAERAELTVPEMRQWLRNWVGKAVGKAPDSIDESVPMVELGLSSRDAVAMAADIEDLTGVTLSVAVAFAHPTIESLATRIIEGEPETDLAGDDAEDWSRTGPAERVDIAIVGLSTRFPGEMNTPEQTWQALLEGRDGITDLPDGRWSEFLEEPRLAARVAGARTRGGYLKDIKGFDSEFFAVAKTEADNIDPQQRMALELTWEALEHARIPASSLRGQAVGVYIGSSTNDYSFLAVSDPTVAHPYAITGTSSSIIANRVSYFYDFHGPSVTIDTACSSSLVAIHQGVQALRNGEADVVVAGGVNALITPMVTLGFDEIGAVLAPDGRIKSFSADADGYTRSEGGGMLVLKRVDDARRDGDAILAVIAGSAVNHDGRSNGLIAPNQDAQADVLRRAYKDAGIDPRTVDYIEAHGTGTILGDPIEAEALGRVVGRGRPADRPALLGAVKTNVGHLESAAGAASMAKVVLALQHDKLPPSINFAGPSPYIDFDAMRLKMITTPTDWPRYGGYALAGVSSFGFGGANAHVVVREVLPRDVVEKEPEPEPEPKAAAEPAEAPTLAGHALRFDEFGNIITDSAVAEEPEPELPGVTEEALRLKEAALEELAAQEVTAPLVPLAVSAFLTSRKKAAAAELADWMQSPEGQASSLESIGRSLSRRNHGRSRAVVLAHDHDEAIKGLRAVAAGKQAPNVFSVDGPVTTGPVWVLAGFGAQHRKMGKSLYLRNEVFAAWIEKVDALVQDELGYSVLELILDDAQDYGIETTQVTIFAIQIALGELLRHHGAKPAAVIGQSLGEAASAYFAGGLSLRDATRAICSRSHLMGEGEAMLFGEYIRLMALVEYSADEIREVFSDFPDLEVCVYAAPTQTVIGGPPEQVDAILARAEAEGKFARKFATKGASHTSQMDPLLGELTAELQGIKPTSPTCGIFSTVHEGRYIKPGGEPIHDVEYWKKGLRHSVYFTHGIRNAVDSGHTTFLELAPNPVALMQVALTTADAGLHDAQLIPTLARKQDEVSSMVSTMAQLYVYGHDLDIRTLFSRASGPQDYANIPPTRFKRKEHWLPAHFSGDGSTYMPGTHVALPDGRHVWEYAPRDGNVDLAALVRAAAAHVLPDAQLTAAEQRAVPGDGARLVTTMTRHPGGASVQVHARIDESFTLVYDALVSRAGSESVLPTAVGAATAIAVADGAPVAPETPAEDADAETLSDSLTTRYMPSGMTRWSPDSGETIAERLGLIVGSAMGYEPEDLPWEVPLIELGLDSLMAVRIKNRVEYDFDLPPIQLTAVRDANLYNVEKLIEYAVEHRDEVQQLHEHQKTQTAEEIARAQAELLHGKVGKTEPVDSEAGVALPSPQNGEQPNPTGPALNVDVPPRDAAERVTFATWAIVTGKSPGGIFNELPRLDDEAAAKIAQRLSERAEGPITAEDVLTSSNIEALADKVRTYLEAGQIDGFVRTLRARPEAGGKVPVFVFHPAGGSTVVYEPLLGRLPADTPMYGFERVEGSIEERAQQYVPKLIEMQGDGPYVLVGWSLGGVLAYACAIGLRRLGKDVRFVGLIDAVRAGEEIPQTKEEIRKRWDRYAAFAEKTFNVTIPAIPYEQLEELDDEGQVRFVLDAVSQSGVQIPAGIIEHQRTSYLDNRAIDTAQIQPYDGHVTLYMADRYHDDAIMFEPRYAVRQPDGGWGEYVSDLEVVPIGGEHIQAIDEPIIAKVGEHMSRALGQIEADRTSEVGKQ
UniProt P9WNZ1, whole entry: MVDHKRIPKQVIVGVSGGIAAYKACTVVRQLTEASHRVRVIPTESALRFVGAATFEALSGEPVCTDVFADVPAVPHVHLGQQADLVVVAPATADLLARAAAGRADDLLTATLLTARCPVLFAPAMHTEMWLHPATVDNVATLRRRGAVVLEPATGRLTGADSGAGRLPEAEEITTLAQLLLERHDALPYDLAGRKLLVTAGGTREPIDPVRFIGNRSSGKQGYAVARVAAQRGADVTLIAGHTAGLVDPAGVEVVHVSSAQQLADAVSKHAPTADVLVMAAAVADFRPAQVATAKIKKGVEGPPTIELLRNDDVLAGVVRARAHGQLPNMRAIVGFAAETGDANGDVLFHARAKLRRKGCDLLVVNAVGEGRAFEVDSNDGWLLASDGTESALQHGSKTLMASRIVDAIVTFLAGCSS
UniProt P9WFT3, whole entry: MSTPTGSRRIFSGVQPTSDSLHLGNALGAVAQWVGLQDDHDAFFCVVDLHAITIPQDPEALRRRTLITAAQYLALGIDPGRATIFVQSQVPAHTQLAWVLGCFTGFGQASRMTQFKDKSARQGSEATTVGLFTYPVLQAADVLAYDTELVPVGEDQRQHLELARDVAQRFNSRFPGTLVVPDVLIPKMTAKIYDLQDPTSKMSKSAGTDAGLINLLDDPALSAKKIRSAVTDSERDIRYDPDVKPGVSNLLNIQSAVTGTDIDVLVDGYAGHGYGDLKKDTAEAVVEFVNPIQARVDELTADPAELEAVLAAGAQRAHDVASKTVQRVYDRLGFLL

The values are deposited in ChEMBL (CHEMBL3988442, “University of Dundee, Small-Polar-MMV Screening Library” (2021)).

Pks13 thioesterase: 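Polyketide synthase Pks13, Mycobacterium tuberculosis (UniProt I6X8D2). Enzyme assay of the thioesterase domain of polyketide synthase 13; the read-out is not stated. Concentration: 30 µM. The record gives no direction; the compounds picked for IC50 retests had high values, so higher reads as stronger inhibition. Of about 67,000 compounds tested this way, about 300 (0.46%) reached 50% or more in at least one test.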
CoaBC: 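Coenzyme A biosynthesis protein CoaBC, Mycobacterium tuberculosis (UniProt P9WNZ1). Enzyme assay of CoaBC with a phosphate dye (Biomol Green) read at 650 nm. Compounds at 30 µM. Direction is inferred from only a few compounds that gave an IC50; most scored high, so higher reads as stronger inhibition. Most strong results did not repeat in a second test. About 67,000 compounds were tested under these conditions; 0.06% (about 40) showed 50% or more at least once.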
Leishmania in macrophages: 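Cell assay of Leishmania donovani living inside macrophages; the read-out is not stated. Compounds at 30 µM. Direction is inferred from retests: higher values go with stronger inhibition. Of about 69,000 compounds tested this way, about 1,000 (1.5%) reached 50% or more in at least one test.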
MtTrpRS: 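Enzyme assay of tryptophanyl-tRNA synthetase; the read-out is not stated. Target: Tryptophan-tRNA ligase, Mycobacterium tuberculosis (UniProt P9WFT3). Tested at 10 µM. Direction is not recorded; retested compounds ran higher, which suggests that high means inhibition. About 65,000 compounds were tested under these conditions; 0.098% (about 64) showed 50% or more at least once.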

Results are given as percent effect. The record does not define 0% and 100%; most values in the screen are far below 50% and negative numbers occur (in some assays of this library far below -100). The compounds are a random part of those screened. Two or more numbers in one place are separate tests of the same structure; such repeats can differ widely. A dash means the value is not listed here; it may have been measured.

SMILES,Pks13 thioesterase,CoaBC,Leishmania in macrophages,MtTrpRS
O=C(CCNC(=O)c1ccoc1)Nc1cc(F)cc(F)c1,-,9.719%,27.44%,3.173%
COCC1CN(C(=O)c2cccc(C)n2)Cc2nccn2C1 (centres unmarked),-5.582%,6.799%,-,-0.3791%
O=C(O)C(F)(F)F.[H][C@@]12CN(Cc3ccoc3)CCC[C@]1(C(=O)O)CN(c1ncccn1)C2,-,-,11.88%,-
CCSc1ncc(-c2cc(C3CCC3)nc(N)c2C#N)cn1,13.67%,3.03%,-6.272%,-0.7742%
COc1cccc2ccc(N3CCC(O)(C(=O)O)CC3)nc12,-3.601%,4.141%,5.629%,-1.224%
CN(CCc1cnn(C)c1)C(=O)C(c1ccccc1F)N(C)C (centres unmarked),-17.08%,-3.614%,5.516%,-0.273%
Cc1nn(C)cc1C(C)Nc1ncc(C(N)=O)cc1Cl (centres unmarked),-5.198%,2.288%,17.93%,1.31%
COCc1nc(C(=O)NS(=O)(=O)c2cc(C)ccc2C)cs1,-7.827%,-2.632%,11.02%,-9.358%
COc1cc(CCC(=O)NC(C)C)ccc1OCC(F)(F)F,-15.22%,2.738%,-15.47%,-2.652%
Cc1noc2nc(C3CCCN(Cc4cccnc4)C3)cc(C(F)F)c12 (centres unmarked),1.324%,-1.716%,-18.04%,-
CCCn1cc(C(=O)NCCC(=O)NC2CCCCC2)c(C)n1,-,-2.051%,23.56%,-1.232%
O=c1cc(Cn2cncn2)nc2n1CCCN(CC1CC1)C2,-5.921%,-0.3861%,23.47%,0.6711%
CC(C)CCc1nc(CN2CCOC(Cn3cncn3)C2)cs1 (centres unmarked),4.24%,0.894%,7.844%,-6.383%
COc1cnc(N2CCN(C)CC2)nc1-c1ccnn1C,67.95%,5.521%,10.68%,-3.043%
OC1CCCN(Cc2ccnc(-c3cccnc3)n2)C1 (centres unmarked),5.809%,0.6196%,-,-
CCNC(=O)C(C)NC(=O)Nc1ccccc1SC(F)(F)F (centres unmarked),-5.679%,1.966%,5.537%,-1.568%
Cc1nn(Cn2ccc(C(=O)N3CCC(C)CC3)n2)c(C)c1Cl,-10.24%,4.698%,52.68%,3.018%
Cc1cnc(N2CCC3(CC2)CC3CN(C)Cc2cccnc2)nc1 (centres unmarked),7.886%,-26%,-,3.453%
COCCCNC(=O)Cc1nc(-c2ccncc2)n[nH]1,0.3817%,-8.407%,-25.69%,-1.683%
Cl.N#Cc1cnc2ccccc2c1N1CCN(CCC(=O)O)CC1,-,-,30.68%,-
[H][C@@]12CCN(S(C)(=O)=O)[C@]1([H])CC[C@@H](c1nnc(C)o1)O2,-,-,-16.47%,-
COCCNC(=O)c1cc(-c2cc[nH]n2)n2ccccc12,47.61%,5.762%,-,6.427%
NC(=O)COc1ccc(CNC(=O)CN2CCc3ccccc32)cc1,-3.097%,-0.641%,26.54%,-0.6173%
Cc1noc(C2CCC3(CCN(C(=O)c4sccc4C)CC3)O2)n1 (centres unmarked),-14.47%,-5.185%,-4.348%,1.724%
COc1ccc(-c2nnc([C@H]3CCN(CC4CC4)C3)o2)cc1,13.65%,7.726%,-6.582%,-0.8346%
[H][C@]12CC[C@]([H])(CN(c3cnccn3)C1)N(C(=O)c1cccnc1SC)C2,-,-,0.5796%,-
CCOCC1c2c(cnn2CC2CC2)CCN1Cc1nccs1 (centres unmarked),-8.187%,-2.343%,-,-2.039%
O=C(O)C1CCCN(c2nc3c(-c4ccccc4)csc3c(=O)[nH]2)C1 (centres unmarked),-10.33%,15.43%,16.43% and 1.069%,-11.17%
Cc1cc(Oc2ccccc2)nc(C2CCCCN2)n1 (centres unmarked),4.363%,-5.276%,-44.47%,9.262%
COCc1ccccc1NC(=O)NCc1ccc(OCC2CC2)nc1,-0.8567%,0.6316%,5.637%,0.9893%
O[C@@]1(c2ccccn2)CC[C@H]2CN(Cc3ccccn3)C[C@H]21,-6.584%,0.7264%,-,-
CS(=O)(=O)CCC(=O)N1CCC(c2ccc(F)c(F)c2)CC1,0.231%,0.9569%,5.78%,-3.981%
COCCN1C(=O)[C@]2(CC[C@@H]3CN(S(=O)(=O)CC(C)C)C[C@@H]32)N=C1C,-36.65%,-3.807%,-,9.959%
CNC(=O)CN1CCO[C@H]2CN(CC3CCOCC3)C[C@H]21,-27.22%,10.04%,-,-8.234%
Cn1cc(CN2CCC3(CC2)CCN(C(=O)c2cscn2)C3)cn1.O=C(O)C(F)(F)F,-,-,20.71%,-
CC(=O)N[C@@H]1CN(Cc2oc3ccccc3c2C)C[C@H]1c1ccc(C)o1,-18.46%,-1.844%,23.79%,3.61%
O=c1n(Cc2ccccn2)nc(C2CCNCC2)n1Cc1ccccc1,-8.407%,-15.87%,2.502%,0.486%
O=C(CN1CCCC1Cn1cccn1)NCCC1=CCCCC1 (centres unmarked),0.4304%,0%,18.17%,-2.407%
Cn1cc(C2SCC(=O)Nc3c2c(=O)[nH]n3C2CCOCC2)cn1 (centres unmarked),-1.217%,1.263%,2.897%,-0.6303%
CC(=O)Nc1nc(C(=O)Nc2ccc(F)cc2)cs1,-5.374%,2.308%,20.4%,-6.177%
Cn1cc(-c2ncnc3c2CCN(CC2CCOC2)CC3)cn1.O=C(O)C(F)(F)F (centres unmarked),-,-,12.82%,-
Cc1oc(-c2ccco2)nc1CC(=O)NCC(C)(C)N(C)C,-9.316%,4.551%,19.96%,-4.613%
COc1nn(C)c2c1CCCN(S(=O)(=O)c1cccc(C)c1)C2,-27.38%,5.14%,21.57%,-2.634%
O=C(NCc1cc2n(n1)CCCNC2)c1cn2cc(Cl)ccc2n1,-24.31%,-9.535%,22.2%,0.7452%
Cc1cncnc1C1CCN(C(=O)C2(C)CCCCN2C)CC1 (centres unmarked),1.126%,-15.5%,-10.06%,-4.634%
O=c1oc2ccccc2n1CCN(CC1CCOC1)C1CC1 (centres unmarked),-11.08%,4.713%,5.978%,0.1805%
c1cc(CNCc2cccc3c2OCCO3)cc(Cn2cncn2)c1,-10.94%,3.767%,29.65%,1.447%
CCN(Cc1nccs1)Cc1cc(Cl)ccc1OC,-1.473%,-0.6452%,-1.846%,2.834%
CC(C)NC(=O)CCNC(=O)c1cc(Br)cn1C(C)C,10.69%,-2.885%,8.734%,-1.499%
CN(C)S(=O)(=O)N1CC[C@]2(O)CCN(c3nc4ccccc4s3)C[C@@H]2C1,-2.012%,-3.96%,-,-1.314%
Cc1cc(C)n(CC2CN(Cc3nc(-c4ccoc4)no3)CCO2)n1 (centres unmarked),-4.205%,-0.5931%,39.19%,-0.5477%
C1CC(c2noc(C3CC3)n2)N(Cc2nc(C3CC3)no2)C1 (centres unmarked),-0.825%,-4.307%,23.69%,6.638%
COc1cc(C)nc(N2CCN(C(=O)c3cccc(C#N)c3)CC2)n1,-1.299%,-3.781%,30.88%,-3.83%
CN(C)CCn1c(=O)oc2ccc(NC(=O)CC(C)(C)C)cc21,-12.67%,12.05%,14.15%,1.421%
Cc1nccc(NCc2cncc3c2CCN(S(C)(=O)=O)C3)n1.Cl,-,-,21.52%,-
CC(C)Oc1ccccc1CNC(=O)c1[nH]ncc1Br,-61.34%,-4.925%,20.93%,-1.571%
[H][C@@]12CN(c3nccnc3C)C[C@]1(C(=O)O)CN(C1CCOCC1)C2,-,-,18.77%,-
CCOc1ccc(C(=O)N(Cc2cnn(C)c2)C(C)C)cc1OCC,-15.15%,5.236%,12.77%,-8.877%
Cc1cc(S(=O)(=O)Nc2cccc(OC(F)F)c2)sc1C(=O)O,72.81%,12.88%,-6.909%,17.5%

Some entries from above, unchanged:

SMILES,Pks13 thioesterase,CoaBC,Leishmania in macrophages,MtTrpRS
Cc1nccc(NCc2cncc3c2CCN(S(C)(=O)=O)C3)n1.Cl,-,-,21.52%,-
COc1cc(C)nc(N2CCN(C(=O)c3cccc(C#N)c3)CC2)n1,-1.299%,-3.781%,30.88%,-3.83%
CCCn1cc(C(=O)NCCC(=O)NC2CCCCC2)c(C)n1,-,-2.051%,23.56%,-1.232%
O=c1n(Cc2ccccn2)nc(C2CCNCC2)n1Cc1ccccc1,-8.407%,-15.87%,2.502%,0.486%
O=C(CN1CCCC1Cn1cccn1)NCCC1=CCCCC1 (centres unmarked),0.4304%,0%,18.17%,-2.407%
Cc1cc(C)n(CC2CN(Cc3nc(-c4ccoc4)no3)CCO2)n1 (centres unmarked),-4.205%,-0.5931%,39.19%,-0.5477%
C1CC(c2noc(C3CC3)n2)N(Cc2nc(C3CC3)no2)C1 (centres unmarked),-0.825%,-4.307%,23.69%,6.638%